Test results as given in publication PMC4390341.
No constants are given. Whether binding was seen depends on the method and setting. Binding seen in cells or lysates may run through a third protein. Some results given as binding are weak or reduced against the parent protein; the word gives no strength. Where a sequence is shown, tags or fusion partners need not be part of it.

The chains behind the UniProt entries cited, without tags or fusion partners.
UniProt Q9H1Y0: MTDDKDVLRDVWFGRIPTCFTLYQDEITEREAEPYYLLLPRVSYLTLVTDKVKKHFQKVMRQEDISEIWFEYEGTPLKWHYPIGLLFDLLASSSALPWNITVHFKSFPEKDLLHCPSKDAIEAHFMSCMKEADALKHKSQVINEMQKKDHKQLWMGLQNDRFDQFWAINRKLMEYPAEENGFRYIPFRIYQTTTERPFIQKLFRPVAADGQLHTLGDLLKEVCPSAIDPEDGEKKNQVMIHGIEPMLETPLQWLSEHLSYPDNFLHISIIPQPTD
UniProt Q9H0Y0: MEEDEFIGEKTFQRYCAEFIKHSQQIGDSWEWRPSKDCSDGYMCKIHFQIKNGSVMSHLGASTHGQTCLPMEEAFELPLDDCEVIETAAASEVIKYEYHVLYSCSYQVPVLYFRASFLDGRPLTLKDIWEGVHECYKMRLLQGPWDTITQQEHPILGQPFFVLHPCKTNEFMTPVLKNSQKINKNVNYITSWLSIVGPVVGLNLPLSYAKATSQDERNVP

Key:
HA-Atg5 (human) = HA-Atg5 (human) (UniProt Q9H1Y0); assay: co-IP; HeLa cells co-transfected with HA-Atg5 or HA-Atg10 and Myc-IRGM for 24 h, then CA16 infection (MOI = 2) for 12 h; IP with anti-HA antibody, WB with anti-HA and anti-Myc
HA-Atg10 (human) = HA-Atg10 (human) (UniProt Q9H0Y0); assay: as above

binding (HA-Atg5 (human)): binds
binding (HA-Atg10 (human)): binds
B1: Myc-IRGM (protein, UniProt A1A4Y4 1-181)
chain: MEAMNVEKASADGNLPEVISNIKETLKIVSRTPVNITMAGDSGNGMSTFISALRNTGHEGKASPPTELVKATQRCASYFSSHFSNVVLWDLPGTGSATTTLENYLMEMQFNRYDFIMVASAQFSMNHVMLAKTAEDMGKKFYIVWTKLDMDLSTGALPEVQLLQIRENVLENLQKERVCEY
